Among the data in paper PMC3440356 are binding values, retold here.

For experiment [1], the target named is T1, GST-fused Dbl PH domain (human) (UniProt P10911).
T1 sequence: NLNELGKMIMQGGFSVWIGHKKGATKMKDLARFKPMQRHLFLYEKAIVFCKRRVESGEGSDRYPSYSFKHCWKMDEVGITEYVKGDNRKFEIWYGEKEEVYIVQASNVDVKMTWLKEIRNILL
The experiment in a line: pull-down; COS-1 cells co-transfected with PI3KC2β and GST-tagged Dbl domains; lysates (Triton 1%) incubated with glutathione-sepharose beads 2 h at 4°C; immunoblot.

For experiment [2], the target named is T1, GST-fused Dbl PH domain (human). The experiment in a line: pull-down; in vitro binding assay: GST-tagged proteins immobilised on glutathione-sepharose beads, incubated with soluble thrombin-cleaved NT-C2β and Grb2, 2 h at 4°C, 1% Brij 96 buffer (also Triton 1%); immunoblot; both purified.

These are yes or no findings as the source states them, for the method shown. For some assays here: In cells and extracts the contact can be indirect. Tags and fused reporters may be left off the sequences shown.

With endogenous Grb2 (COS-1), the binding result in experiment [1] was “no binding”.

“soluble N-terminal region of PI3KC2β (domain or fragment)”: in experiment [2], the binding result was “no binding”.
